Binding data for one substance are collected here from paper PMC8595650, “Structure of the bacterial flagellar hook cap provides insights into a hook assembly mechanism” (Communications Biology, 2021).

Amino acid sequences for entries named in this document (tags omitted).
UniProt P0A1I9: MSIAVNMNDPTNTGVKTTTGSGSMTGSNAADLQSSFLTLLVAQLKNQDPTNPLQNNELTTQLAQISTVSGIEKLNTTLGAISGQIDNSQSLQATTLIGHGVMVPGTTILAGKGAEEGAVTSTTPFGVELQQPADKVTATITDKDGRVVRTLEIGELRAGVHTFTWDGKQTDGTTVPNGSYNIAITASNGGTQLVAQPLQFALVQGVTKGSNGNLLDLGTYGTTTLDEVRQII

The target of this assay is Wild-type FlgD expressed in E. coli BL21(DE3), whole-cell fraction (Salmonella enterica serovar Typhimurium) (UniProt P0A1I9). Kind of assay: native gel or EMSA; native PAGE under a non-denatured condition of whole-cell fractions of E. coli BL21(DE3) expressing FlgD or deletion variants, immunoblot with anti-FlgD antibody.

Results are given in words; binding and its absence hold for the method and conditions named. Some binding calls cover weakened binding; strength is not graded here.

“Wild-type FlgD expressed in E. coli BL21(DE3), whole-cell fraction (from UniProt P0A1I9 1-232)”: the binding entry was “binds”.
